# Some entries share one result that the patent states for a list of compounds.
# Test system: exon 44 of human dystrophin mRNA
# Assay: Exon 44 skipping by RT-PCR in hDMD mice
# Assay type: in vivo
# Conditions: 40 mpk IV, 5 days
# Description: The hemizygous mice were further genotyped at Transnetyx. All groups were dosed 5 mL/kg per animal by intravenous (iv) injection and sacrificed after 5 days post injection. All animals were euthanized by CO2 asphyxiation followed by terminal blood collection via cardiac puncture. Maximum obtainable volume of whole blood was collected into lithium heparin tubes and processed to plasma. A portion of plasma was analyzed for clinical chemistries by the Testing Facility (IDEXX) and the rest stored frozen at nominally −70° C. […] Animals were age matched and assigned into eight (8) treatment groups according to Table 15. […] All animals survived until their scheduled euthanasia time. Tissues were collected per protocol. The amount of AC and a cCPP-AC in various tissue samples was quantified by LC-MS. Exon skipping in different tissues were analyzed by RT-PCR and the quantification of exon 44 correction.
# Exon Skipping Analysis by RT-PCR: hDMD mice and NHP express full-length human dystrophin mRNA. […] The detection of splicing correction process was measured by RT-PCR where extracted RNAs from tissues were first reverse-transcribed into cDNA and further analyzed by one step RT-PCR using the following primer set: forward primer 5′-[…]-3′ (SEQ ID NO: 262) and reverse primer 5′-[…]-3′ (SEQ ID NO: 263). […]
row,Substance,exon skipping in all skeletal muscles
1,Ac-PKKKRKV-AEEA-K(cyclo[GfFGrGrQ])-PEG12-OH [EEV-PMO-DMD44-2],above 80%
2,Ac-PKKKRKV-AEEA-Lys-(cyclo[FGFGRGRQ])-PEG12-OH [EEV-PMO-DMD44-1],above 80%
